## Percent effect of library compounds

Sequences of proteins named here, by UniProt entry; tags and fusion partners are left off. Residues count along the entry.
UniProt P9WNZ1, whole entry: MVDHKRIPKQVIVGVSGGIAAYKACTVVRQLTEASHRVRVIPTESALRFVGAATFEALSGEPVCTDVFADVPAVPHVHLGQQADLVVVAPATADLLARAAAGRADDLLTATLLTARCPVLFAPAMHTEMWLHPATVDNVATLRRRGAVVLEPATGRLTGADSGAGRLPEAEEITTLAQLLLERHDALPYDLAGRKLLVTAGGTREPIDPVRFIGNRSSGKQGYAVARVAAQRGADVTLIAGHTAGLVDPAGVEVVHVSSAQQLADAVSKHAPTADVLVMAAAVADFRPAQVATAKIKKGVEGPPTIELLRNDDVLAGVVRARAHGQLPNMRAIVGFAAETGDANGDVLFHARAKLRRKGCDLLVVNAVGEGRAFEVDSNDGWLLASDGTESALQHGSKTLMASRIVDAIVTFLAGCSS
UniProt Q4DA54, 1-478: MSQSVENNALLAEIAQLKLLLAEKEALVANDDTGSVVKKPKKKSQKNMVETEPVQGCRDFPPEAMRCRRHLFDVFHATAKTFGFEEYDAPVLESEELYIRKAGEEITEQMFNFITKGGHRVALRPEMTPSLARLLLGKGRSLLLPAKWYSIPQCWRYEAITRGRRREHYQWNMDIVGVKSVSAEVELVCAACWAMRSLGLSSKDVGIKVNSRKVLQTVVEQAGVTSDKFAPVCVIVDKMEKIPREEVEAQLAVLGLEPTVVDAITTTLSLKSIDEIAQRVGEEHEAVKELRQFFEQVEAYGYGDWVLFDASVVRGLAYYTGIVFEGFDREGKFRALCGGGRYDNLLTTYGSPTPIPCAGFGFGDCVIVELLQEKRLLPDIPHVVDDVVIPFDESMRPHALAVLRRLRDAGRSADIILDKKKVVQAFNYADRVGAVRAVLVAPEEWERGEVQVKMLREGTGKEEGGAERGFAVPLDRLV

Measurements from “University of Dundee, Small-Polar-MMV Screening Library” (2021), ChEMBL document CHEMBL3988442.

A: 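Enzyme assay of CoaBC with a phosphate dye (Biomol Green) read at 650 nm. Target: Coenzyme A biosynthesis protein CoaBC, Mycobacterium tuberculosis (UniProt P9WNZ1). Tested at 30 µM. Higher reads as stronger inhibition, judged from the few compounds that gave an IC50. Most strong results did not repeat in a second test. Of about 67,000 compounds tested this way, about 40 (0.06%) reached 50% or more in at least one test.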
B: 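Enzyme assay of histidyl-tRNA synthetase; the read-out is not stated. Target: Histidine-tRNA ligase, Trypanosoma cruzi CL Brener (UniProt Q4DA54). Compounds at 30 µM. The record gives no direction; compounds that gave an IC50 in retests scored well above the rest, so higher reads as stronger inhibition. About 69,000 compounds were tested under these conditions; 0.045% (about 31) showed 50% or more at least once.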

Values are the deposited “Percent Effect”, in %. How 0% and 100% were set is not recorded. Most values in the screen are low, and negative values occur. The compounds are a random part of those screened.

compound | A | B
Cc1cc(C)cc(CN2CCN(C(=O)COCC3CCCO3)CC2=O)c1 (stereo not shown) | 9.259 | 3.665
Cc1csc(CNC(=O)CCCc2cccs2)n1 | -6.452 | 5.028
CC1=Nc2c(c(=O)[nH]n2C2CCOCC2)C(c2cccc(O)c2)S1 (stereo not shown) | 1.09 | 1.98
CCCn1ncc(C(=O)N2CCN(C3CCSCC3)CC2)c1C | 4.139 | 5.464
CC(NC1(CNC(=O)NC2CC2)CCOCC1)c1ccccc1 (stereo not shown) | -2.071 | -0.5952
Cc1cccc(CCC(=O)Nc2ccnn2C2CCS(=O)(=O)C2)c1 (stereo not shown) | 5.058 | 3.333
CC(C)Oc1ncc(C(=O)N2CCC(N(C)C)CC2)cc1Cl | 0.9756 | 5.882
OCC1(O)CCN(Cc2ccc(-c3cc[nH]n3)s2)CC1 | 5.011 | 2.186
CCC(CN1CCOCC1)n1cncc1-c1ccc2c(c1)CCCN2C (stereo not shown) | 5.767 | 0
COCCNC(=O)c1cc(C(C)C)nc(N2CCCC2)n1 | 1.848 | -1.739
Cc1ccc(C(=O)CCC(=O)N2CCC(c3nncn3C)CC2)cc1 | 2.651 | 1.527
COc1ccc2c(c1)OCC(Cc1ccc(N)cn1)C2 (stereo not shown) | -4.536 | 15.87
COCc1ccccc1CNC(=O)CNc1cccc(Cl)c1OC | 6.542 | 1.327
CC(C)n1ccc(-c2cc(C(=O)N3CCCC3)c3ccccn23)n1 | 6.17 | 6.077
Cn1cccc1C(=O)Nc1cc(F)ccc1OCC1CCCO1 (stereo not shown) | -1.687 | -8.397
O=C(NCc1ccco1)[C@@]12CCO[C@@H]1CCN(Cc1ccccn1)C2 | 2.932 | 10.78
CCCN1CCC2(C1)c1ccccc1S(=O)(=O)N2Cc1ccc(F)cc1 (stereo not shown) | 3.893 | 5.747
O=C(C1CC(=O)N(C2CCCC2)C1)N1CCN(CCn2cccc2)CC1 (stereo not shown) | 6.696 | 3.734
CCn1ccnc1CN1CCCn2nc(CNC(=O)C3CCC3)cc2C1 | 1.086 | -3.518
Cc1nnc(NCc2cccnc2N(C)C)c(C#N)c1C | 0 | -1.149
Cc1ccccc1CNC(=O)C1CCN(Cc2nccn2C)CC1 | -4.167 | 5.814
COc1cc2c(cc1-c1nc3c(cnn3C(C)C3CC3)[nH]1)OCO2 (stereo not shown) | 7.438 | 12.14
CC(CNC(=O)c1ccc(C#N)cc1)N1CCc2ccccc21 (stereo not shown) | 2.122 | 5.102
CC(C)Cc1noc(CN(C)c2ncccn2)n1 | 4.198 | 3.483
CNC(=O)C1CCN(c2nc3nc[nH]c(=O)c3s2)CC1 | 1.337 | 8.911
CCN1CCn2c(C)cnc2C12CCN(C(=O)c1ccc(Cl)cc1)CC2 | 0.1269 | 8.108
CN(Cc1ccccc1)C(=O)c1cc2c(c(S(N)(=O)=O)c1)CCC2 | -4.435 | 10.61
CS(=O)(=O)N1CC2(CCN(Cc3ccccn3)C2)Cc2ccccc21 (stereo not shown) | -8.684 | 10.06
O=C(NCCc1c[nH]cn1)C1CCCN(Cc2ccco2)C1 (stereo not shown) | 0 | 5.587